{"source": "patent US5451369A", "about": "“Bacteriocidal surfaces and articles with attached bacteriocin” (The State of Oregon Acting By and Through The State Board …, priority 1993, dated 1995)", "origin": "cited, not measured here", "system": "proteolytic and other enzymes", "details": "cited from earlier work", "data": [{"substance": "nisin (ITSISLCTPGCKTGALMGCNMKTATCHCSIHVSK; Lantibiotic nisin-A; UniProt P13068 24-57, looked up)", "values": [{"measurement": "effect of α-chymotrypsin, pancreatin, and ficin on antimicrobial activity", "setting": "treatment with α-chymotrypsin, pancreatin, ficin", "value": "can destroy the antimicrobial activity"}, {"measurement": "effect of trypsin, pepsin, erepsin, diastase, and carboxypeptidase A on activity", "setting": "trypsin, pepsin, erepsin, diastase, carboxypeptidase A", "value": "do not appear to inactivate"}]}]}
